Experimental findings from doi:10.1101/287508 are described below.

Sequences of proteins named here, by UniProt entry; tags and fusion partners are left off. A change or cut given only in a name is not applied to a line headed by its entry. Residues count along the entry.
UniProt Q888Y7: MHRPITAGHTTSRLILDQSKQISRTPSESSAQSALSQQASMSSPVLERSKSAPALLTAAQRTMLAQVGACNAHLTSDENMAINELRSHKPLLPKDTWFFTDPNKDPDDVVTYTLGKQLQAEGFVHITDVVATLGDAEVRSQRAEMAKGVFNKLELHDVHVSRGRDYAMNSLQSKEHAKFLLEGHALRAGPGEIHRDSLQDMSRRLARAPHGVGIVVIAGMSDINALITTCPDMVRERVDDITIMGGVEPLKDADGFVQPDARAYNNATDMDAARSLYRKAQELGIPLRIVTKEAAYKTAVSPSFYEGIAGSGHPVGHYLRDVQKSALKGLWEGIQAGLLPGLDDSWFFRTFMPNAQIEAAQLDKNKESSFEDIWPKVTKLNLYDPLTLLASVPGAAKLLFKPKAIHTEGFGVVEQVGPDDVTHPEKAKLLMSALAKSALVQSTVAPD
UniProt P53668: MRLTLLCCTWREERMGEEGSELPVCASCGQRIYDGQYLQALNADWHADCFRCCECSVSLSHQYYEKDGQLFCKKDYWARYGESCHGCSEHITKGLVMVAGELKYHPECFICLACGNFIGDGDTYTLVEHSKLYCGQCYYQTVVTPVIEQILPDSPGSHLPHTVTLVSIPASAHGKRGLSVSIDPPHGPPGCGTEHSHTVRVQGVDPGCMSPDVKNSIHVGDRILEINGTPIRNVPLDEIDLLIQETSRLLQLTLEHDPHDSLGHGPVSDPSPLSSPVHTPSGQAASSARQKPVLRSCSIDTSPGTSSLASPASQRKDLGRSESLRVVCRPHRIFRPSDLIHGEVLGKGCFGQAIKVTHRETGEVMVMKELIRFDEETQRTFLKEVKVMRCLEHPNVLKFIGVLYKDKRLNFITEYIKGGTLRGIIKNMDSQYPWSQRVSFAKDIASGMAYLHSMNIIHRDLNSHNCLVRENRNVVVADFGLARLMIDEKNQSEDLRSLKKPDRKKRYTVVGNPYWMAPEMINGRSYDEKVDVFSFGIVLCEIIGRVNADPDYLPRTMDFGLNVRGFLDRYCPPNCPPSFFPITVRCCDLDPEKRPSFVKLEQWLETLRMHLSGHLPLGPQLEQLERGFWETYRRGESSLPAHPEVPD
GST-LIMK1 ΔPDZ, Kinase (lacking residues 148–648): residues 1-147 of P53668
UniProt P53667: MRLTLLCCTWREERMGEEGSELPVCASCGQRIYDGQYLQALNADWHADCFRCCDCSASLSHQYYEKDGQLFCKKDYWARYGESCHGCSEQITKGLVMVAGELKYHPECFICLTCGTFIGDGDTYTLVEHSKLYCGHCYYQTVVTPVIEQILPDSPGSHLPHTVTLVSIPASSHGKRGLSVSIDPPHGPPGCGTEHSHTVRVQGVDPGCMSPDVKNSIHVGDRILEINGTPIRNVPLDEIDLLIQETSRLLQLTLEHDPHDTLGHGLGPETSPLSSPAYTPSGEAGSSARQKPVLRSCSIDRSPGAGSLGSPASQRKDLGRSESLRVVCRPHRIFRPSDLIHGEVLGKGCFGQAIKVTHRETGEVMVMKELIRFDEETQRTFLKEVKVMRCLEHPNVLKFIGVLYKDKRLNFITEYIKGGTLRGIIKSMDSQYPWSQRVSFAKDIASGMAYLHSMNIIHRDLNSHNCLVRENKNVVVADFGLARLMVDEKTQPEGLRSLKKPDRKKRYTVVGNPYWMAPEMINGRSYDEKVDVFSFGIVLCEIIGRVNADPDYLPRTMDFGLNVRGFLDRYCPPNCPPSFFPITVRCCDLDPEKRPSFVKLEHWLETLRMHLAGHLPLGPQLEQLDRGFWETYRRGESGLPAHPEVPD
UniProt P23528: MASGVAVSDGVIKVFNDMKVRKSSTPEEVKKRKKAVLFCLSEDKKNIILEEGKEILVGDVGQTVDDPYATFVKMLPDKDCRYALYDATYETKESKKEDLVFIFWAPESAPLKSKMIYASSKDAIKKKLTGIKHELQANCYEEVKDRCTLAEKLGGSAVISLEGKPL

No constants are given. Whether binding was seen depends on the method and setting. In cells and extracts the contact can be indirect. Some entries that bind do so weakly or less than the wild type.

In assay [1] the target is Flag-tagged HopQ1 (Pseudomonas syringae pv. tomato DC3000) (UniProt Q888Y7). Put plainly: co-IP.
In assay [2] the target is GST-LIMK1, mouse LIMK1 (full) (mouse) (UniProt P53668). Put plainly: pull-down.
Assay [3] addresses GST-LIMK1 ΔPDZ, Kinase (lacking residues 148–648) (mouse) (UniProt P53668). Briefly: pull-down.

With “LIM domain kinase 1 (LIMK1), endogenous in 293T cells (from UniProt P53667 1-647)”, in assay [1], the binding entry is “binds”.
As to “Flag-tagged HopQ1 (from UniProt Q888Y7 1-447)”, the binding entry in assay [2] and in assay [3] was “binds” each time.
As to “cofilin1, endogenous in 293T cells (from UniProt P23528 1-166)”, the binding entry in assay [1] is given as “no binding”.
